Assay results taken from publication PMC7819943, “Rice protein-binding microarrays: a tool to detect cis-acting elements near promoter regions in rice”.
Some of the results follow.

Each sequence was assayed against T1, OsSMF1 (Oryza sativa, UniProt Q6ZLB0 1-436) (assay: protein-binding microarray (RPBM); PBS, 2% BSA, 51.3 ng/ul salmon testes DNA, 50 uM zinc acetate, 200 nM TF, 25 C, 1 h; high values mean tight binding). Conditions: protein: recombinant; tags: N-terminal polyhistidine and DsRed monomer fusion (pET32a); chain copies: 2; label: CyDye5-dUTP incorporated in the synthesized complementary strand; 3' TTTTT single-stranded linker to array surface; dsDNA, one strand shown.
T1 sequence: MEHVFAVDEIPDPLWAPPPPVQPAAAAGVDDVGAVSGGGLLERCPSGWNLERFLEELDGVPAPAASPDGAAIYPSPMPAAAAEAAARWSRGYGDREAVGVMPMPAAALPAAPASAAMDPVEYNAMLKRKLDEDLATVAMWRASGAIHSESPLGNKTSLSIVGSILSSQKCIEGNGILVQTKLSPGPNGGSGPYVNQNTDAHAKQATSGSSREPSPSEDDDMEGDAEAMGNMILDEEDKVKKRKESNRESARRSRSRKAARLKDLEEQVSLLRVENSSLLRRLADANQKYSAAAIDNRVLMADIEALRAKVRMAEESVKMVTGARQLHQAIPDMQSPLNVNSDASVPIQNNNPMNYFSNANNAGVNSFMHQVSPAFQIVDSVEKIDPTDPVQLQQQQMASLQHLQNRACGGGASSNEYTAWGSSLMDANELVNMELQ
Method in brief: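 Binding signal is defined as the fluorescence intensity of each feature in arbitrary units, read on an Axon 4000B scanner. Transcription factors with N-terminal polyhistidine and DsRed fusions came from E. coli BL21-CodonPlus and were purified on Ni–NTA. They were incubated at 200 nM for 1 h at 25 °C on a custom Agilent array that had been made double-stranded with Cy5-dUTP, with 50 µM zinc acetate present, and the array was washed.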

Sequence | binding signal
GGTTAGGGTTTGGGGTGGGGAGGGGTGGATGCGCGTGGGCCGGAGTCACCTAGTGCAG | 5350 fluorescence intensity (a.u.)
CCTTAATTATAATCCATGTAGACGTCAACGTATGATAAAGCGGAGTCACCTAGTGCAG | 3800 fluorescence intensity (a.u.)
TGGTGGTGGTGGCCATGCACACGTCGACCAAGCTCCGGATCGGAGTCACCTAGTGCAG | 5270 fluorescence intensity (a.u.)
TTGCGATCAAGGCATCATCATCATCATCATCATCACGTGACGGAGTCACCTAGTGCAG | 3210 fluorescence intensity (a.u.)
ACAACAGCTCGATCCATCCACGCGCGCGTGACGGCTCGGCCGGAGTCACCTAGTGCAG | 4690 fluorescence intensity (a.u.)
TGTGTGTGAGCAGCCGCAGTCCTTACGTTTAGCCCAGTCACGGAGTCACCTAGTGCAG | 3690 fluorescence intensity (a.u.)
GGAGACACCTGTGACGCTGCCGCGTGGGCCCACACGGACGCGGAGTCACCTAGTGCAG | 4740 fluorescence intensity (a.u.)
AGCGATTTATAATTGTACTATTGCAAATGTGGCAAAATGCCGGAGTCACCTAGTGCAG | 3340 fluorescence intensity (a.u.)
AAATTAACCGTATATGCACATTGTTGTAAATTGCAGCTTGCGGAGTCACCTAGTGCAG | 3740 fluorescence intensity (a.u.)
ACTTATTCTCCCTCAAAATCGTCATCTTCTCTGCCCTTTGCGGAGTCACCTAGTGCAG | 3800 fluorescence intensity (a.u.)
TCATCAGATTGTATTGTTACATTTGACTGCTTGCAGCTAGCGGAGTCACCTAGTGCAG | 17300 fluorescence intensity (a.u.)
TACACCACACGAGTATACGACGTCAGACACGACCAAACCCCGGAGTCACCTAGTGCAG | 4160 fluorescence intensity (a.u.)
TTCTAAACGGTTAGTTTTCTTTAAGTTCCTTTTCAAGTTCCGGAGTCACCTAGTGCAG | 3360 fluorescence intensity (a.u.)
GTCACCAGCCACGTGACACGGCGATGAATGGGATTTTGGACGGAGTCACCTAGTGCAG | 5470 fluorescence intensity (a.u.)
ACATTTATTTCCCATATGAAATTTGCTCAAAATTAACTTGCGGAGTCACCTAGTGCAG | 21700 fluorescence intensity (a.u.)
CTTCAGGGTCGTCGCCGCTTCACTACCTCATCAGCATCCACGGAGTCACCTAGTGCAG | 3720 fluorescence intensity (a.u.)
AGTAAGGAGAGCTGCAAGTTTCTTACACAATATGTTGTCTCGGAGTCACCTAGTGCAG | 18200 fluorescence intensity (a.u.)
GGACACTGACATGTGGGGCTCACCGTATGCCACGTCAGCGCGGAGTCACCTAGTGCAG | 34300 fluorescence intensity (a.u.)
AGACGAAGGCCCTGATGTCAGAAAATGTGACATGGACAACCGGAGTCACCTAGTGCAG | 4290 fluorescence intensity (a.u.)
GAGGGAGAGGGGAGAGGGAATGACATGTGGAACACACCATCGGAGTCACCTAGTGCAG | 3890 fluorescence intensity (a.u.)
CGTCGCCGCAAAACCCCACGTCCCCACCTCGACTCGCCTCCGGAGTCACCTAGTGCAG | 7120 fluorescence intensity (a.u.)

Exported as comma-separated lines: part of the list above
Sequence,binding signal
TGGTGGTGGTGGCCATGCACACGTCGACCAAGCTCCGGATCGGAGTCACCTAGTGCAG,5270 fluorescence intensity (a.u.)
TTGCGATCAAGGCATCATCATCATCATCATCATCACGTGACGGAGTCACCTAGTGCAG,3210 fluorescence intensity (a.u.)
ACAACAGCTCGATCCATCCACGCGCGCGTGACGGCTCGGCCGGAGTCACCTAGTGCAG,4690 fluorescence intensity (a.u.)
TGTGTGTGAGCAGCCGCAGTCCTTACGTTTAGCCCAGTCACGGAGTCACCTAGTGCAG,3690 fluorescence intensity (a.u.)
GGAGACACCTGTGACGCTGCCGCGTGGGCCCACACGGACGCGGAGTCACCTAGTGCAG,4740 fluorescence intensity (a.u.)
AGCGATTTATAATTGTACTATTGCAAATGTGGCAAAATGCCGGAGTCACCTAGTGCAG,3340 fluorescence intensity (a.u.)
AAATTAACCGTATATGCACATTGTTGTAAATTGCAGCTTGCGGAGTCACCTAGTGCAG,3740 fluorescence intensity (a.u.)
ACTTATTCTCCCTCAAAATCGTCATCTTCTCTGCCCTTTGCGGAGTCACCTAGTGCAG,3800 fluorescence intensity (a.u.)
TCATCAGATTGTATTGTTACATTTGACTGCTTGCAGCTAGCGGAGTCACCTAGTGCAG,17300 fluorescence intensity (a.u.)

More entries

Sequence | binding signal
TATGACTAATCATGGACTAATTAGGCTCAAAAGATTCGTCCGGAGTCACCTAGTGCAG | 33200 fluorescence intensity (a.u.)
CCAGTTTTGTCCACGTGGCAGCTGACTCACGGTGGGACCCCGGAGTCACCTAGTGCAG | 29200 fluorescence intensity (a.u.)
TACAAAGAGCGTGTGCTTCAGGAATGCGTGCCACACTCTTCGGAGTCACCTAGTGCAG | 3510 fluorescence intensity (a.u.)
TGAATTTATGTGGTTATATTATATAGCCATGTTAAATTAACGGAGTCACCTAGTGCAG | 5950 fluorescence intensity (a.u.)
GTAATGACGCGGTTACCGGTGGTAAGGGAAACCCTGCTCCCGGAGTCACCTAGTGCAG | 6560 fluorescence intensity (a.u.)
ATGAGTTACCTATTATCCTCCACCGTGGCAGGCCTACTCACGGAGTCACCTAGTGCAG | 4750 fluorescence intensity (a.u.)
GATGGCTTTTATTGTCAAGAGATTCAAGCACTTTCTTCGCCGGAGTCACCTAGTGCAG | 13400 fluorescence intensity (a.u.)
CCACCAAACCCTCGAAAATCAAGAGCCCGTAAAACAGAAGCGGAGTCACCTAGTGCAG | 3430 fluorescence intensity (a.u.)
ACAGACCTTGTGACTTCATCACACAAACGGCCAAGCTCCCCGGAGTCACCTAGTGCAG | 3860 fluorescence intensity (a.u.)
TTGCACGACGCCACGTAACAGATTCCTACGAACCTAAGCTCGGAGTCACCTAGTGCAG | 4520 fluorescence intensity (a.u.)
TTGTCCCTATAATAATATGTCACTCAAAATTGCTAATAAACGGAGTCACCTAGTGCAG | 3400 fluorescence intensity (a.u.)
TCCGGCAGCCGCCGCCGGACACCATGGCTGACTCTCCGAGCGGAGTCACCTAGTGCAG | 3270 fluorescence intensity (a.u.)
GCGGGATCTCGCCACACACGTAATCCGACGCCCGCGCGACCGGAGTCACCTAGTGCAG | 4070 fluorescence intensity (a.u.)
CATCCAGACACTGTAGCTGATTCTGTTTAGTCAGCGTAGCCGGAGTCACCTAGTGCAG | 3480 fluorescence intensity (a.u.)
TTCATAAAACTCCACCTGATCCGAATTACTCTACCAATAACGGAGTCACCTAGTGCAG | 4490 fluorescence intensity (a.u.)
GATGAGATGAGGGAGATACCATCAGACTTGCACCAGATGGCGGAGTCACCTAGTGCAG | 3660 fluorescence intensity (a.u.)
AACTTTTAGGGCCAGTTCGCTTGCGAGTTTGACAATGACACGGAGTCACCTAGTGCAG | 3210 fluorescence intensity (a.u.)
AGAAAAGGATGTGTCACTGACATGTAGGGCCCATCATTTTCGGAGTCACCTAGTGCAG | 6910 fluorescence intensity (a.u.)
ATCGGCAGCTGCCACGTGACCCGCTTCCGTCTCAAAAGCCCGGAGTCACCTAGTGCAG | 6320 fluorescence intensity (a.u.)
TGTGATTTGGTACATGCATGTTCTACTAAGTCTGTTTCTACGGAGTCACCTAGTGCAG | 3520 fluorescence intensity (a.u.)
CTCTGATCGTTTGAGCTTGGGCTATGTGGAAACATGAACACGGAGTCACCTAGTGCAG | 3860 fluorescence intensity (a.u.)
